Results deposited as PubChem BioAssay AID504791 (Drosophila RNAi Screening Center, 2011).
In all, the deposit lists about 23,000 reagents; below is a random part of those with a known target gene and a result. Over the whole deposit, 199 (0.86%) were called active. 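Plate-scaled ratios behind the calls are not deposited; printed light signals are raw; many rows marked increased or decreased are still called inactive.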 Names joined by + are all predicted targets of the reagent. The record does not give: the direction of the score.

- Screen: 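Genes of the fly required for silencing by miRNA, siRNA or endo-siRNA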 (primary screen)
- System: Drosophila S2-derived reporter cells
- Reagent: long dsRNA against Drosophila genes, about 150-250 ng dsRNA per well (siRNA assay); about 80-120 ng (miRNA assay)
- Duration: about 5 days (siRNA assay); about 4 days (miRNA assay)
- Conditions: copper sulfate induction of reporters: 25 µM (siRNA assay); 200 mM stated (miRNA assay), 1-2 days before reading
- Measurement: 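Dual luciferase assay: Renilla to firefly signal ratio in each well, scaled to the mean ratio of its plate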
- Units: stable assay Renilla, run 1 in luminescence; stable assay firefly, run 1 in luminescence
- Active means: 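a well was a first-pass pick when its plate-scaled ratio rose above 1.5 (siRNA assay) or 1.6 (miRNA assay), or dropped below 0.6; a gene counted only if two separate dsRNAs agreed on retest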

| gene | DRSC id | stable siRNA reporter change | miRNA reporter change | stable assay Renilla, run 1 | stable assay firefly, run 1 | activity call |
| --- | --- | --- | --- | --- | --- | --- |
| CG43066 | DRSC06927 | – | – | 4810 | 3.72e5 | inactive |
| CG13670 | DRSC10029 | – | – | 6404 | 4.29e5 | inactive |
| CG13311 | DRSC09982 | – | – | 6555 | 4.04e5 | inactive |
| loco (locomotion defects) | DRSC15202 | – | – | 7222 | 3.25e5 | inactive |
| loco (locomotion defects) | DRSC16989 | – | – | 10747 | 3.78e5 | inactive |
| CG17440 | DRSC18126 | – | – | 5015 | 3.65e5 | inactive |
| Jon99Cii (Jonah 99Cii) | DRSC16858 | – | – | 6187 | 3.63e5 | inactive |
| Jon99Cii (Jonah 99Cii) | DRSC22574 | – | – | 5052 | 5.51e5 | inactive |
| CG13005 | DRSC19524 | – | – | 5423 | 3.99e5 | inactive |
| CG12699 | DRSC06162 | – | – | 11157 | 4.65e5 | inactive |
| CG15005 | DRSC08459 | – | – | 6571 | 4.32e5 | inactive |
| ova (ovaries absent) | DRSC02879 | – | – | 45045 | 3.02e5 | inactive |
| L2HGDH (L-2-hydroxyglutarate dehydrogenase) | DRSC02082 | – | reporter ratio lowered past the hit cutoff | 1.70e5 | 1.44e6 | inactive |
| CG14451 | DRSC11708 | – | – | 7370 | 3.95e5 | inactive |
| CG7791 | DRSC04891 | – | – | 10303 | 1.54e6 | inactive |
| jumu (jumeau) | DRSC16651 | – | – | 4215 | 3.08e5 | inactive |
| Myc | DRSC18762 | – | – | 6024 | 3.91e5 | inactive |
| Gagr (Gag-related) | DRSC10441 | – | – | 7472 | 2.79e5 | inactive |
| CG33459 | DRSC05615 | – | – | 6155 | 4.19e5 | inactive |
| eIF3c (eukaryotic translation initiation factor 3 subunit c) | DRSC06905 | – | – | 4587 | 3.35e5 | inactive |
| CG42527 (retired record) + Hr4 | DRSC18495 | – | – | 3795 | 2.36e5 | inactive |
| CG42527 (retired record) + Hr4 | DRSC22269 | – | – | 7590 | 3.36e5 | inactive |
| CG42527 (retired record) + Hr4 | DRSC22677 | – | – | 4279 | 4.70e5 | inactive |
| CG42527 (retired record) + Hr4 | DRSC23080 | – | – | 5191 | 3.36e5 | inactive |
| CG42527 (retired record) + Hr4 | DRSC23251 | – | – | 3824 | 3.25e5 | inactive |
| Or67d (Odorant receptor 67d) | DRSC10158 | – | – | 6327 | 5.94e5 | inactive |
| spict (spichthyin) | DRSC02157 | – | – | 31823 | 4.54e5 | inactive |
| vg (vestigial) | DRSC07715 | – | – | 4339 | 3.99e5 | inactive |
| vg (vestigial) | DRSC22669 | – | – | 4107 | 4.63e5 | inactive |
| Spn28F (Serpin 28F) | DRSC03615 | – | – | 7583 | 3.19e5 | inactive |
| CG13896 | DRSC08366 | – | – | 6166 | 3.22e5 | inactive |
| JMJD7 (Jumonji domain containing 7) | DRSC09703 | – | – | 5354 | 5.25e5 | inactive |
| CG13135 | DRSC02232 | – | – | 6484 | 3.00e5 | inactive |
| dpr10 (defective proboscis extension response 10) | DRSC09015 | – | – | 4215 | 3.22e5 | inactive |
| dpr10 (defective proboscis extension response 10) | DRSC09018 | – | – | 5511 | 3.01e5 | inactive |
| dpr10 (defective proboscis extension response 10) | DRSC10159 | – | – | 7019 | 4.10e5 | inactive |
| dpr10 (defective proboscis extension response 10) | DRSC10160 | – | – | 6890 | 3.77e5 | inactive |
| Grasp65 | DRSC10917 | – | – | 7431 | 3.49e5 | inactive |
| boly (borrelly) | DRSC21629 | – | – | 7909 | 3.64e5 | inactive |
| CG31759 | DRSC01230 | – | – | 5391 | 4.30e5 | inactive |
| Ufsp1 (UFM1 specific peptidase 1) | DRSC04958 | – | – | 4447 | 4.42e5 | inactive |
| Pfdn2 (Prefoldin 2) | DRSC10618 | – | – | 5976 | 4.54e5 | inactive |
| Kal1 (Kallmann syndrome 1) | DRSC15983 | reporter ratio raised past the hit cutoff | – | 11256 | 2.86e5 | inactive |
| ClC-a (Chloride channel-a) | DRSC14947 | – | – | 5968 | 3.60e5 | inactive |
| ClC-a (Chloride channel-a) | DRSC14948 | – | – | 6322 | 4.01e5 | inactive |
| ClC-a (Chloride channel-a) | DRSC16142 | – | – | 7578 | 3.89e5 | inactive |
| CG4789 | DRSC19918 | – | – | 3939 | 2.98e5 | inactive |
| CG31886 | DRSC03248 | – | – | 7892 | 7.58e5 | inactive |
| Septin2 (Septin 2) | DRSC16855 | – | – | 10420 | 4.28e5 | inactive |
| klg (klingon) | DRSC13591 | – | – | 3512 | 4.13e5 | inactive |
| klg (klingon) | DRSC16978 | – | – | 6682 | 3.31e5 | inactive |
| CG12343 | DRSC06135 | – | – | 7864 | 3.38e5 | inactive |
| CG3149 | DRSC17732 | – | – | 7350 | 3.65e5 | inactive |

Continued (4 carried over from the part before).
| gene | DRSC id | stable siRNA reporter change | miRNA reporter change | stable assay Renilla, run 1 | stable assay firefly, run 1 | activity call |
| --- | --- | --- | --- | --- | --- | --- |
| klg (klingon) | DRSC13591 | – | – | 3512 | 4.13e5 | inactive |
| klg (klingon) | DRSC16978 | – | – | 6682 | 3.31e5 | inactive |
| CG12343 | DRSC06135 | – | – | 7864 | 3.38e5 | inactive |
| CG3149 | DRSC17732 | – | – | 7350 | 3.65e5 | inactive |
| CG17855 | DRSC02638 | – | – | 5746 | 3.71e5 | inactive |
| beg (bad egg) | DRSC10923 | – | – | 6854 | 2.39e5 | inactive |
| CG32551 | DRSC19259 | – | – | 4239 | 3.73e5 | inactive |
| CG34228 | DRSC05300 | – | – | 5636 | 3.92e5 | inactive |
| Ser7 | DRSC18201 | – | – | 8239 | 4.22e5 | inactive |
| Lint-1 (l(3)mbt interacting protein 1) | DRSC19822 | – | – | 7058 | 5.59e5 | inactive |
| tral (trailer hitch) | DRSC09779 | – | – | 7048 | 2.48e5 | inactive |
| dx (deltex) | DRSC18767 | – | – | 4384 | 2.74e5 | inactive |
| CAP | DRSC05215 | – | – | 9230 | 5.16e5 | inactive |
| CAP | DRSC06743 | – | – | 8708 | 6.06e5 | inactive |
| CAP | DRSC06744 | – | – | 4947 | 2.86e5 | inactive |
| CAP | DRSC06745 | – | – | 6927 | 4.52e5 | inactive |
| CAP | DRSC06846 | – | – | 6669 | 4.52e5 | inactive |
| Nup153 (Nucleoporin 153kD) | DRSC19904 | – | – | 5687 | 3.45e5 | inactive |
| CG32221 | DRSC09638 | – | – | 6079 | 3.00e5 | inactive |
| CG31462 (retired record) | DRSC14359 | – | – | 6691 | 3.78e5 | inactive |
| CG31265 | DRSC15745 | – | – | 7366 | 3.99e5 | inactive |
| Or98b (Odorant receptor 98b) | DRSC16775 | – | – | 6703 | 3.65e5 | inactive |
| Or98b (Odorant receptor 98b) | DRSC21751 | – | – | 8520 | 4.26e5 | inactive |
| rho-7 (rhomboid-7) | DRSC07304 | – | – | 4596 | 2.69e5 | inactive |
| Rab30 | DRSC03137 | – | – | 7523 | 3.74e5 | inactive |
| swi2 | DRSC06457 | – | – | 6994 | 3.55e5 | inactive |
| cry (cryptochrome) | DRSC16928 | – | – | 8695 | 3.77e5 | inactive |
| Reck (Reversion-inducing-cysteine-rich protein with kazal motifs) | DRSC10504 | – | – | 8306 | 3.09e5 | inactive |
| Reck (Reversion-inducing-cysteine-rich protein with kazal motifs) | DRSC10505 | – | – | 8495 | 4.86e5 | inactive |
| CG10038 | DRSC14178 | – | – | 8366 | 4.87e5 | inactive |
| Fs(2)Ket (Female sterile (2) Ketel) | DRSC03328 | – | – | 13442 | 5.26e5 | inactive |
| CG18538 | DRSC06765 | – | – | 8499 | 3.41e5 | inactive |
| CG17349 | DRSC02610 | – | – | 6956 | 4.52e5 | inactive |
| Rb97D (Ribonuclear protein at 97D) | DRSC16815 | – | – | 5435 | 4.24e5 | inactive |
